The values that follow come from publication PMC10018501 (ACS Omega, 2023).

SMILES strings stand for the structures.

For one series, the system named is malonaldehyde (MDA). Kind of series: Ex vivo MDA estimation. The note with it: scopolamine-treated rats; SD-6 2.5, 5, 10 mg/kg; donepezil 5 mg/kg. In kind it is in vivo, rat.
Series [1] concerns hippocampal brain (dentate gyrus) neurons. The series is described as follows: Brain tissue histopathology. In kind it is in vivo, rat. As to conditions: Aβ1–42 rats, SD-6 10 mg/kg, donepezil 5 mg/kg.
The test system of a further series is glutathione (GSH). Kind of series: Ex vivo reduced glutathione. As to conditions: scopolamine-treated rats; SD-6 2.5, 5, 10 mg/kg; donepezil 5 mg/kg. Type of series: in vivo, rat.
Series [2] concerns nondifferentiated SH-SY5Y cells. Kind of series: Neuroprotective estimation. In kind it is cell-based. The note with it: Homo sapiens, 24 h, read-out: cell viability.
A further series in a line: in vitro. The note with it: PAMPA, pH 7.4.
Another series deals with catalase. Kind of series: Ex vivo catalase assay. Type of series: in vivo, rat. As to conditions: scopolamine-treated rats; SD-6 2.5, 5, 10 mg/kg; donepezil 5 mg/kg.
Series [3] relates to superoxide dismutase (SOD). Kind of series: Ex vivo SOD assay. In kind it is in vivo, rat. As to conditions: scopolamine-treated rats; SD-6 2.5, 5, 10 mg/kg; donepezil 5 mg/kg.

Regarding `COc1cc2c(cc1OC)C(=O)C(CC1CCN(Cc3ccccc3)CC1)C2` (stereo not shown) [donepezil, reference compound], in the series with malonaldehyde (MDA), the MDA level entry is given as “significantly different”. In addition, in series [1], the “neuronal morphology (dentate gyrus)” value was “less disordered neuronal arrangement and vacuolar fibrosis”. The “neuronal density (dentate gyrus)” value in series [1] (vs Aβ1–42-treated group) is recorded as “higher”. For the same compound, the GSH level entry with glutathione (GSH) was “statistically significant”. Also, in series [2], the viability at 5 µM is 57.9%, the viability at 10 µM was 70.8% and the viability at 20 µM is 81.3%. Also, the Papp at 18 h, 25 μg/mL in the series “in vitro” stood at 5.264 ± 0.022 ×10⁻⁶ cm/s. In addition, in the series with catalase, the catalase activity entry is reported as “statistically significant”. In addition, in series [3], the SOD level entry was “significantly different”.

One may read the viability as the share of living cells, or the viability signal relative to a control. In general, Papp refers to a coefficient for how fast a substance crosses the barrier.
